Earlier results as cited in patent publication US20210085688A1, “PHARMACEUTICAL COMBINATIONS OF EGFR INHIBITORS AND METHODS OF USE THEREOF” (DANA-FARBER CANCER INSTITUTE, INC., priority 2018, published 2021).
For at least one compound, name, drawing or mass did not settle the structure.

Tested on: NSCLC resistant to gefitinib or erlotinib
Conditions: patients with NSCLC resistant to gefitinib or erlotinib; cited from earlier work

In the case of `CN(C)C/C=C/C(=O)Nc1cc2c(Nc3ccc(F)c(Cl)c3)ncnc2cc1O[C@H]1CCOC1` [Afatinib], the RR is given as < 10%.
